Results from patent US20180303937A1, “A COMPOSITION FOR CONTROLLED RELEASE OF A BIOMOLECULE, METHOD OF PREPARATION AND USES THEREOF” (CENTRO DE NEUROCIENCIAS E BIOLOGIA CELULAR, priority 2015, published 2018).

Tested on: SC-1 mouse fibroblasts
Experiment: Light-induced release of fluorescent proteins in cells (confocal microscopy, Manders' colocalization)
Assay type: cell-based
Settings: for stimulus that induced primarily the release in cells: dual protein AuNR-TRITC, 4 h incubation, NIR laser

Substance: DL488-BSA
- cell fluorescence after irradiation (irradiation with 1.25 or 2 W/cm^2): increased fluorescence of the cell
- colocalization between DL488-BSA and AuNR when cells are irradiated (versus non-irradiated cells): decreases

Substance: DL488-BSA-ssDNA68.9
- stimulus that induced primarily the release in cells: second stimulus (2 W/cm^2, 2 min)

Substance: DL650-BSA-ssDNA51.7
- stimulus that induced primarily the release in cells: first stimulus (1.25 W/cm^2, 2 min)
